PubChem BioAssay AID504764 – Drosophila RNAi Screening Center – 2011
The deposit covers about 22,000 reagents; below is a random part of those with a known target gene and a result. Over the whole deposit, 403 (1.9%) got an active call. 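Unnormalised raw counts per well; ratio z-scores behind the hit calls and whether each hit raises or lowers signal are not deposited.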 The record does not give: the amount of reagent.

Aim: 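Genes whose knock-down alters Notch-dependent transcription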 (primary screen)
Cells: Drosophila Kc167 cells
Knock-down reagent: long dsRNA against Drosophila genes
Duration: about 5 days (4 days dsRNA, then 24 h after transfection)
Challenge: transfection of constitutively active membrane-tethered Notch lacking the extracellular domain, read 24 h later
Read-out: 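Firefly luciferase from an E(spl)m3 reporter with active Notch, plus control-promoter and uninduced reporter wells for normalisation; unnormalised counts, duplicate wells a and b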
Scale: induced reporter light, run 1, well a and induced reporter light, run 1, well b: higher = more light from the Notch target reporter with active Notch; control promoter light, run 1, well a and control promoter light, run 1, well b: higher = more light from the viral control promoter (cell number, transfection, viability); uninduced reporter light, run 1, well a: higher = more light from the Notch target reporter without active Notch
Rule for the call: 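Hit if the duplicate-averaged log2 ratio of induced to control-promoter light gives a plate-wise z beyond ±2, or induced to uninduced beyond ±1.8; weak-control or discordant-duplicate wells dropped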
Meaning of the calls: active = modifier hit (raised or lowered Notch signal); inactive = not a hit

gene	dsRNA	induced reporter light, run 1, well a	induced reporter light, run 1, well b	control promoter light, run 1, well a	control promoter light, run 1, well b	uninduced reporter light, run 1, well a	Outcome
Grasp65	DRSC10917	1.46e5	98385	94270	83225	11335	inactive
vsg	DRSC10219	1.22e5	1.12e5	1.40e5	1.11e5	9928	inactive
Rph	DRSC17790	70030	64440	1.66e5	1.35e5	8120	inactive
nbs	DRSC11373	1.52e5	1.17e5	2.06e5	1.11e5	7755	inactive
Pgant5	DRSC03149	1.58e5	1.50e5	1.99e5	2.25e5	11935	active
CG12375	DRSC02163	73070	86885	70725	75605	6705	inactive
ImpE1	DRSC11195	2.05e5	1.92e5	2.19e5	1.89e5	9120	inactive
ImpE1	DRSC11196	1.78e5	2.02e5	1.77e5	1.84e5	8125	inactive
CG17349	DRSC02610	43070	36380	42710	45795	3090	inactive
CG3473	DRSC01915	1.99e5	1.82e5	1.67e5	1.82e5	17700	inactive

Active calls (from the list above):
gene	dsRNA	induced reporter light, run 1, well a	induced reporter light, run 1, well b	control promoter light, run 1, well a	control promoter light, run 1, well b	uninduced reporter light, run 1, well a	Outcome
Pgant5	DRSC03149	1.58e5	1.50e5	1.99e5	2.25e5	11935	active

Additional records follow.
gene	dsRNA	induced reporter light, run 1, well a	induced reporter light, run 1, well b	control promoter light, run 1, well a	control promoter light, run 1, well b	uninduced reporter light, run 1, well a	Outcome
IntS9	DRSC10493	1.06e5	1.23e5	56005	70620	12215	inactive
unc-45	DRSC15449	1.06e5	1.07e5	1.28e5	79555	8545	inactive
sima	DRSC17055	11305	13480	14415	12155	3495	inactive
CG15803	DRSC15121	2.05e5	1.64e5	2.00e5	1.80e5	13720	inactive
ACXE	DRSC00847	1.60e5	1.56e5	1.46e5	1.60e5	12210	inactive
bel	DRSC16555	31300	23860	29270	20828	3245	inactive
CG13933	DRSC08402	95485	96590	1.59e5	2.13e5	8325	inactive
CG42583	DRSC22937						active
pen-2	DRSC05722	92445	1.08e5	1.12e5	95955	8125	inactive
CG6685	DRSC10695	1.18e5	75700	94810	1.06e5	3705	inactive
